# Values of other authors as cited in patent US20130102635A1, “Methods for Treating Disorders Associated with Hyperlipidemia in a Mammal” (priority 2005, published 2013).
# Some results were stated once for a whole list of compounds, not compound by compound.
# Conditions: patients with genotype-confirmed hoFH, maximal dose of statins (atorvastatin or simvastatin 80 mg/day)
structure (smiles),measurement,value
"CC(C)c1c(C(=O)Nc2ccccc2)c(-c2ccccc2)c(-c2ccc(F)cc2)n1CCC(O)CC(O)CC(=O)O (stereo not shown) [atorvastatin, 7-[2-(4-fluorophenyl)-5-(1-methylethyl)-3-phenyl-4-(phenylcarbamoyl)-1H-pyrrol-1-yl]-3,5-dihydroxy-heptanoic acid]",mean LDL-C reduction,less than 20%
